Experimental data taken from PubChem BioAssay AID743327 (National Center for Advancing Translational Sciences (NCATS), 2014).
This list holds what a sample rich in hits left over. Calls of active or inactive are those of the source. Calls come from the whole dose curve.

assay: qHTS profiling of Chloroquine Analogs as inhibitors of Plasmodium falciparum (HB3) proliferation; details: P. falciparum HB3 proliferation; at 28.7 µM (top of the series)
Description: Plasmodium falciparum is a virulent malarial parasite that kills 1-2 million people worldwide each year. Transmitted by mosquitoes, the sporozoite form of the parasite enters the blood stream to infect hepatocytes, where they become merozoites that infect red blood cells (erythrocytes). Within erythrocytes, merozoites begin a […] cycle of growth and division, after which the parasite is released to infect new red blood cells. Gametocytes, which form within erythrocytes as well, circulate in the bloodstream and are ingested by the mosquito, thereby completing the life cycle. To profile malarial isolates for differential chemical responses and to identify inhibitors of malarial growth, an assay that measures P. falciparum growth and replication within erythrocytes was employed. […] Because mature erythrocytes lack DNA, only Plasmodium-derived DNA is detected.
The SYBR Green viability assay was adapted from a method described previously (Plouffe et al., 2008). […] The following morning, fluorescence intensity at 485(14) nm excitation and 535(25) nm emission wavelengths was measured on an EnVision (Perkin Elmer) plate reader. Plate reads were normalized relative to the control inhibitor (0.29 uM artemisinin) and vehicle (DMSO) wells present on each plate and then corrected by an algorithm using vehicle-only control plates at the beginning and end of the compound plate stack.

SMILES | activity change, negative = inhibition
O=C(CCCCCCC(=O)Nc1ccccc1)NO | inactive: -101%
